# In publication PMC4737751:
# By UniProt entry, the sequences of proteins in these tests, tags left out.
# UniProt P87112: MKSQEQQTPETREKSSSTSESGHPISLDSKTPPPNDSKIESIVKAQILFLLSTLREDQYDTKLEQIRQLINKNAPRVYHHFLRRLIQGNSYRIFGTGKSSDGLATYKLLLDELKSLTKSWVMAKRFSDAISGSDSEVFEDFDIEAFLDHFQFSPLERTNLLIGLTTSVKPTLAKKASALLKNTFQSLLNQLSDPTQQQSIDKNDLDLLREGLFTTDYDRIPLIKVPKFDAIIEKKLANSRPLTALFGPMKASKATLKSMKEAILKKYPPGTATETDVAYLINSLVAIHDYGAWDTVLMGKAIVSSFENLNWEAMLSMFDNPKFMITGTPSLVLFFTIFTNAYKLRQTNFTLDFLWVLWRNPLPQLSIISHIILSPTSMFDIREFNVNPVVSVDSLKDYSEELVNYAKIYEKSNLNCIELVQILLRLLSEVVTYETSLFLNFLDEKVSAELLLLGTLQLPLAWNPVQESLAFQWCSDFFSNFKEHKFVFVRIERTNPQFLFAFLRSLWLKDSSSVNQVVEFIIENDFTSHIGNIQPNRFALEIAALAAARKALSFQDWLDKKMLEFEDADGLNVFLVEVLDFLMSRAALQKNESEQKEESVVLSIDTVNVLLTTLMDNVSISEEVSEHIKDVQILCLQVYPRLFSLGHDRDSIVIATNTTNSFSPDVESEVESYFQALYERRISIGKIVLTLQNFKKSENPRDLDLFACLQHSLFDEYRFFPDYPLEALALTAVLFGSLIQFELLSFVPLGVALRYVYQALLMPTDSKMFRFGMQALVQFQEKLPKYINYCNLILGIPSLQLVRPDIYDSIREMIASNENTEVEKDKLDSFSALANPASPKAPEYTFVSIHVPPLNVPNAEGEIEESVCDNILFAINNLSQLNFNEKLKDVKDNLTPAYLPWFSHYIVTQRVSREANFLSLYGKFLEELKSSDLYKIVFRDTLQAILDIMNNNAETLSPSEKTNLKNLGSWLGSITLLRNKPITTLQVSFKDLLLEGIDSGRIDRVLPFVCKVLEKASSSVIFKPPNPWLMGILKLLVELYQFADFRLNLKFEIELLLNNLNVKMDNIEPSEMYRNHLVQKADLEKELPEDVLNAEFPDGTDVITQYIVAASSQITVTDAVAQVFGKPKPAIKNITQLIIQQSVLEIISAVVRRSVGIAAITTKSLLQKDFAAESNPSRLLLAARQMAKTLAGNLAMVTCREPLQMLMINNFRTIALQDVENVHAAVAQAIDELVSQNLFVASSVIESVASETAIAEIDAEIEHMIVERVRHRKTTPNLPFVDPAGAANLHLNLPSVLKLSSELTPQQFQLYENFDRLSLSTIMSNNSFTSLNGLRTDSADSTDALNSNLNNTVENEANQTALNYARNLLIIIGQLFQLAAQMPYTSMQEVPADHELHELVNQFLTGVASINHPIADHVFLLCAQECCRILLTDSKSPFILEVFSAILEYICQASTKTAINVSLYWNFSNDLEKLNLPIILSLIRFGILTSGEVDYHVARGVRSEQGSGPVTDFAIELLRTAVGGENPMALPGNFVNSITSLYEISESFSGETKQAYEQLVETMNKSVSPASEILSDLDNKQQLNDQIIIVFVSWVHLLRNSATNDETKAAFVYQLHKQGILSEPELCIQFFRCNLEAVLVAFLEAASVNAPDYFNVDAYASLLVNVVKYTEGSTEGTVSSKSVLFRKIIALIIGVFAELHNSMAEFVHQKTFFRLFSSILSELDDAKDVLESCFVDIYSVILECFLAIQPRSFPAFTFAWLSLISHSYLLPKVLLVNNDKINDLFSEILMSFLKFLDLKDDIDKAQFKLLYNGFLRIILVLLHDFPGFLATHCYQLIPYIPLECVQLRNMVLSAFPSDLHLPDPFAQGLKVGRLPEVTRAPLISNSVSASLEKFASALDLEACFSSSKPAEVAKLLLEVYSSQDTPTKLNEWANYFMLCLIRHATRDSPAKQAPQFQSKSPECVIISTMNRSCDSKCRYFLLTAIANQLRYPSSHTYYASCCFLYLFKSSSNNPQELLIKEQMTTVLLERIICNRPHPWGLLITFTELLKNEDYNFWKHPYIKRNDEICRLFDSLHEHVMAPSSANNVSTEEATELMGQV
# T1: Not2 subunit of the S. pombe CCR4-NOT complex, fused to Protein A with a TEV protease cleavage site (S. pombe) (UniProt P87240)
# T1 sequence: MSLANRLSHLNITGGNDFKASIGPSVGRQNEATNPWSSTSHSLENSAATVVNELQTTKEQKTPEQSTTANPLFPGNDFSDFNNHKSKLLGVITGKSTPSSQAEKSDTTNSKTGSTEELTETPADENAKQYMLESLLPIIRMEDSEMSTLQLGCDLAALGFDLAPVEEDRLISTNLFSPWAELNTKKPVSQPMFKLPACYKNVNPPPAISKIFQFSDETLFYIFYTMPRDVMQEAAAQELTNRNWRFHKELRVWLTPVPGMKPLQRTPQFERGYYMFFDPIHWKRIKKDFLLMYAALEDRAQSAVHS
# Molecular target: T1, Not2 subunit of the S. pombe CCR4-NOT complex, fused to Protein A with a TEV protease cleavage site (S. pombe)
# Assay: affinity purification with mass spectrometry; Protein A tag on Not2 captured on IgG Sepharose from S. pombe extract, washes with 500 mM NaCl, TEV elution, 10-30% glycerol gradient (10 mM HEPES pH 8.0, 500 mM NaCl); subunits identified by mass spectrometry; the same preparation gave the EM reconstructions
row,binding,Molecule
1,binds,"Not1 (negative on TATA 1), S. pombe CCR4-NOT subunit (from UniProt P87112 1-2100)"
2,binds,"Not4, S. pombe CCR4-NOT subunit (E3 ubiquitin ligase)"

# More lines, now with the values behind:
row,Molecule,binding
1,"Caf1, S. pombe CCR4-NOT deadenylase subunit (protein, UniProt O74856 1-335) MTAMNSNFSYPALGVDGISSQISPIRDVWSTNLQQEMNLIMSLIERYPVVSMDTEFPGVVARPLGVFKSSDDYHYQTLRANVDSLKIIQIGLALSDEEGNAPVEACTWQFNFTFNLQDDMYAPESIELLTKSGIDFKKHQEVGIEPADFAELLIGSGLVLQEEVTWITFHSGYDFAYLLKAMTQIPLPAEYEEFYKILCIYFPKNYDIKYIMKSVLNNSKGLQDIADDLQIHRIGPQHQAGSDALLTARIFFEIRSRYFDGSIDSRMLNQLYGLGSTGSVLWHNNSSTPQIQFRDLPGAHPSPTPSNAGIPTTLTNTSSAPNFANSTFRFPPRVV",binds
2,"Caf40 (Ccr4-associated factor 40), S. pombe CCR4-NOT subunit (protein, UniProt Q92368 1-283) MENLESPNYEPALVYEWIIQLVSGTSREQALVELSRKREQYEDLALILWHSYGVMTALLQEIISVYPLLNPPTLTGPTSNRVCNALALLQCIASHPETRIHFLNAHITLFLYPFLNTLSKSKPFEYLRLTSLGVIGALVKNDSPEVINFLLSTEIIPLCLRIMENGSELSKTVAIFIVQKFLCDDVGLQYICQTYERFYAVASVLNNMVMQLVDSFAFRLLKHVIRCYLRLSDNPRAREALRHCLPEPLRDATFAQVLKDDHNTKKCLAQLLINLSDVAVVNQ",binds
3,"Ccr4, S. pombe CCR4-NOT deadenylase subunit (protein, UniProt O74874 1-690) MFNPRYTQGTIYPGAHPGLLTPDHQHAAILSVQNSPALENSNISEHWKQQIALATQSRSFSSPHQRAHNAAALARSGGPGFSMNYNARTGAFTGGPNAAGLSSLGGKYNTSSTTTTLTTSTTLNTSSGTTLNSTSKTTTSSVAVDDQKSKSDSKKERRDWTCLDLGGIGLRNVSTDLFKFSFLTELYINHNNLTRLPPEIGKLKNLVILDASGNSIKTIPPELGLLTELREVLLFDNMISVIPAELGTLFQLKILGIEGNPLQDVYKNQIMESGTAGLIAALRDGCPVGPPPPERGWEKLVSDDDDDVNDNVSTSVRDLTAADSNKPSTTSKNLKFTIMSYNVLCERYATSTLYGYTPSWALSWSYRKDLIMQELGGYNADIICLQEVDVENYDTFFAPQMSLKGYKGVHFPKSRVRTMNEVERRIVDGCATFFKTSKYVMHEKMVIEYNQAPSLRRQDIKLTSNMYNRVMTKDNISVITLLENKENGSRLIVANCHIHWDPQFRDVKVIQVAMLMDEIAQVATKFRNMPSKIPSDQLKDERPTYPEYLKIPILICGDFNSVQGSGVYDFLSSGSISQNHEDFMNNDYGEYTVNGRSHAFNLKSAYGESEALSFTNYTPGFKGAIDHIWYTGNSLEVTGLLKGVDKDYLSGVVGFPNAHFPSDHICLLAEFKVKQEKTPLPSSKFNNDKK",binds
4,"Mmi1, S. pombe YTH family nuclear RNA-binding protein (protein, UniProt O74958 1-488) MSNTNFSTSRSSKSIPELPNLEALRSLWPPPSLNESGDTRSVWTTHTGEPVASSVLSTSGSNNFSSPLKRPAPESHDAPIGRRLMVDDPRLIKHGKYDFSRHCTDYGHSYEWPYFRSLRRESMLYHTSGSYPESQPPYSSYSTDAPHYYHAGSESSAYYDSRSRLHGIQPPPKRRTLSPPPRRLADPVVVGSSRYVEEEVYRRPPYTLASEVPSSASAYQAGYSSYPVRSSPQLSHEDTRHGIASSGSTRYPFVPANTRASHSPSLLEPYAHSLPSSVAPVGAYPEKSSYLLSNSSNDSASRKEKPKARASTPPPLNFSRASEHRNEKGERISMINPRVVLDENGISHRSRYFIMLCDNETAIAHAKKTSIWAVKKDSSKRISDAYKKASVYFIFVAQQTYNALGYAQVVSDLNSTELPFWSDSSHAGGVRIKWIKTCNLFSAEISEIVSHMDHGSEARDGMEMMYDEGSRLCTLINYAIMKRIGRDR",binds

# These are yes or no findings as the source states them, for the method shown. In cells and extracts the contact can be indirect. Here binding means that the protein was enriched with, or labelled near, the bait; the list need not be complete. Where a sequence is shown, tags or fusion partners need not be part of it.
